Test results reported in the supplement of paper PMC12889115.
This is one part of the list. Values are raw readings; no control value is given beside them.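 In the initial screen, polymyxin B was used at a concentration that permeabilizes Salmonella's outer membrane but not its inner membrane. Maximum growth was set by DMSO wells with or without polymyxin B. Since plates varied, data were ranked per plate, and compounds giving the lowest OD600 advanced as hits.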

System: Salmonella enterica serovar Typhimurium SL1344
Experiment: bacterial growth OD600 after 18 h with compound and polymyxin B; higher = more bacterial growth (less inhibition)
Conditions: 50 µM, Mueller-Hinton broth

| Structure (SMILES) | bacterial growth OD600 (polymyxin B 1 µg/mL) | bacterial growth OD600 (polymyxin B 0.75 µg/mL) |
| --- | --- | --- |
| COc1ccc(Cc2noc(-c3ccc(N(C)C(C)c4ccon4)nc3)n2)cc1 (centres undefined) | 0.775 |  |
| CCN(Cc1nccn1C)C(=O)c1ccc(N2CCCC(C)C2)nc1 (centres undefined) | 0.916 |  |
| COCC1CCN(C(=O)c2cc(COc3cccc(C(F)(F)F)c3)[nH]n2)CC1 | 1.15 |  |
| CC(C)CC(=O)C(=O)NC1CC(=O)N(Cc2cccc3ccccc23)C1 (centres undefined) | 0.823 |  |
| COc1ccc(CCN2C(=O)O[C@@H]3CN(C4CCSCC4)C[C@@H]32)cc1 |  | 0.825 |
| O=C(NCC1CCCN(C(=O)CCN2CCCC2=O)C1)c1ccc(F)cc1 (centres undefined) | 0.945 |  |
| COc1ccc2c(c1)OC(C)CN(Cc1ccccc1O)C2 (centres undefined) |  | 0.743 |
| CCCCNC(=O)NC1CCCc2nc(-c3ccccc3)ncc21 (centres undefined) |  | 0.749 |
| CN(C)CCN(CC1CCCN(Cc2ccccc2F)C1)C(=O)CN1CCCC1=O (centres undefined) |  | 0.87 |
